Experimental data from patent publication US10646527B2, “Method of using a Mangifera indica composition in the treatment of obesity” (Vidya Herbs, Inc., priority 2015, dated 2020).
For at least one compound, name, drawing or mass did not settle the structure.

Experiments:
Assay type in all cases: biochemical
[1] = Hydrogen peroxide (H2O2) scavenging activity
Method: Hydrogen peroxide scavenging activity of the composition was estimated in this study where initially, composition solutions were prepared at different concentrations in distilled water and the resultant solutions were mixed in 0.6 ml of 40 mM H2O2 solution prepared in phosphate buffer (0.1 M pH 7.4) and incubated for 10 min. The absorbance was measured at 230 nm against a blank solution containing H2O2. Similar procedure was repeated for the composition, mangiferin, and quercetin. The amount of hydrogen peroxide radical inhibited was calculated using the following equation. The result is expressed as % H2O2 radical scavenging activity.
[formula] [formula] where: Abs control—Absorbance of H2O2 radical Abs sample—Absorbance of sample extract/standard (the composition, mangiferin and quercetin) Result: […]

[2] = Total antioxidant assay (phosphomolybdenum method); details: 100 μg/ml (method b119)
[3] = Lipid peroxidation inhibitory assay (TBARS, egg yolk homogenate); details: Sample Concentration: 100-500 μg/ml
Method: A modified thiobarbituric acid reactive species (TBARS) assay (Ohkowa et al., 1979) is used to measure lipid peroxidation formed using egg yolk homogenate as lipid rich media (Ruberto et al., 2000).
Take 0.5 ml of egg homogenate (10% in distilled water) and 0.1 ml of test sample in the concentration range 100-500 μg/ml in a test tube and volume made up to 1 ml by adding distilled water. Finally add 0.05 ml ferrous sulphate (0.07M) to the above mixture and incubated for 30 min to induce the lipid peroxidation. Thereafter added 1.5 ml of 20% acetic acid (pH 3.5) and 1.5 ml of (0.8% in 1.1% SDS) TBA and 0.05 ml (20%) TCA then heated in boiling water bath for 60 min. After cooling 5 ml of butanol was added to all the test tubes and centrifuged at 3000 rpm for 10 min. Measured the absorbance of the organic upper layer at 532 nm. The percentage inhibition of lipid peroxidation was calculated from the formula,
[formula] where: Ab (cont)—is the absorbance of the control Ab (test sample)—is the absorbance of the test sample/standard

SMILES: O=c1c2cc(O)c(O)cc2oc2cc(O)c([C@@H]3O[C@H](CO)[C@@H](O)[C@H](O)[C@H]3O)c(O)c12 [Mangiferin 98%, Mangiferin]
- % H2O2 radical scavenging activity ([1]; 10 μg/ml): 8.49%
- % H2O2 radical scavenging activity ([1]; 20 μg/ml): 33.01%
- % H2O2 radical scavenging activity ([1]; 30 μg/ml): 64.15%
- % H2O2 radical scavenging activity ([1]; 40 μg/ml): 76.41%
- Total antioxidant capacity [2]: 31.23 mg equivalent ascorbic acid
- Lipid peroxidation % inhibition [3]: 74.9%
